Data as given in PubChem BioAssay AID1259327 (Drosophila RNAi Screening Center, 2017).
In all, the deposit lists about 3,100 reagents; shown is a random part of them. 378 of all reagents (12%) were called active. 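Hits include both directions; z-score sign shows ATP rise or fall; raw luminescence values are not plate-normalised.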 Entries without a mark were called inactive. A plus sign joins genes that one reagent is predicted to hit. The record does not give: the amount of reagent.

- Test: 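Data from controls in screens of zinc and manganese toxicity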
- Cell system: Drosophila S2R+ cells
- Reagents: long dsRNA against Drosophila genes
- Timing: 5 days (water added on day 4, read one day later)
- Conditions: water added as vehicle, no metal, one day before read-out
- Read-out: 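Luciferase ATP signal per well, normalised to plate mean, duplicate average converted to z-score across plates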
- Scale: ATP z-score: higher = more total ATP than typical wells; ATP luminescence: higher = more total ATP
- Rule for the call: 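Called active when the ATP z-score exceeds 1.5 or falls below -1.5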
- Meaning of the calls: active = hit: ATP up or down; inactive = no clear ATP change

CG34435 [DRSC18086] — ATP z-score, duplicate mean = -0.0959; ATP luminescence, replicate 1 (RLU) = 6.10e5; ATP luminescence, replicate 2 (RLU) = 7.37e5
CG34435 [DRSC39470] — ATP z-score, duplicate mean = -0.627; ATP luminescence, replicate 1 (RLU) = 3.97e5; ATP luminescence, replicate 2 (RLU) = 4.25e5
Zip89B (Zinc/iron regulated transporter-related protein 89B) [DRSC16128] — ATP z-score, duplicate mean = 0.56; ATP luminescence, replicate 1 (RLU) = 3.25e5; ATP luminescence, replicate 2 (RLU) = 8.22e5
Zip89B (Zinc/iron regulated transporter-related protein 89B) [DRSC29691] — ATP z-score, duplicate mean = -0.475; ATP luminescence, replicate 1 (RLU) = 7.87e5; ATP luminescence, replicate 2 (RLU) = 7.46e5

Records listed so far whose gene name starts with C or c (2):
CG34435 [DRSC18086] — ATP z-score, duplicate mean = -0.0959; ATP luminescence, replicate 1 (RLU) = 6.10e5; ATP luminescence, replicate 2 (RLU) = 7.37e5
CG34435 [DRSC39470] — ATP z-score, duplicate mean = -0.627; ATP luminescence, replicate 1 (RLU) = 3.97e5; ATP luminescence, replicate 2 (RLU) = 4.25e5

Continued:
NaCP60E (Na channel protein 60E) [DRSC04307] — ATP z-score, duplicate mean = -0.331; ATP luminescence, replicate 1 (RLU) = 7.09e5; ATP luminescence, replicate 2 (RLU) = 6.81e5
NaCP60E (Na channel protein 60E) [DRSC26120] — ATP z-score, duplicate mean = 0.467; ATP luminescence, replicate 1 (RLU) = 8.80e5; ATP luminescence, replicate 2 (RLU) = 9.37e5
CG9536 [DRSC03254] — ATP z-score, duplicate mean = -0.254; ATP luminescence, replicate 1 (RLU) = 4.39e5; ATP luminescence, replicate 2 (RLU) = 4.85e5
CG9536 [DRSC24736] — ATP z-score, duplicate mean = -0.563; ATP luminescence, replicate 1 (RLU) = 8.49e5; ATP luminescence, replicate 2 (RLU) = 7.11e5
CG8086 [DRSC03078] — ATP z-score, duplicate mean = -0.444; ATP luminescence, replicate 1 (RLU) = 4.22e5; ATP luminescence, replicate 2 (RLU) = 4.76e5
CG8086 [DRSC03079] — ATP z-score, duplicate mean = 0.655; ATP luminescence, replicate 1 (RLU) = 8.53e5; ATP luminescence, replicate 2 (RLU) = 7.40e5
CG8086 [DRSC27677] — ATP z-score, duplicate mean = -0.102; ATP luminescence, replicate 1 (RLU) = 1.12e6; ATP luminescence, replicate 2 (RLU) = 9.03e5
PGRP-SC1a + PGRP-SC1b [DRSC25294] — ATP z-score, duplicate mean = -1.31; ATP luminescence, replicate 1 (RLU) = 6.65e5; ATP luminescence, replicate 2 (RLU) = 6.89e5
